The supplement of paper PMC10849652
The other results are listed elsewhere or left out.

By UniProt entry, the sequences of proteins in these tests, tags left out. Where a name states a change or a piece, a line headed by the entry shows the natural chain unless it says otherwise.
UniProt P54725: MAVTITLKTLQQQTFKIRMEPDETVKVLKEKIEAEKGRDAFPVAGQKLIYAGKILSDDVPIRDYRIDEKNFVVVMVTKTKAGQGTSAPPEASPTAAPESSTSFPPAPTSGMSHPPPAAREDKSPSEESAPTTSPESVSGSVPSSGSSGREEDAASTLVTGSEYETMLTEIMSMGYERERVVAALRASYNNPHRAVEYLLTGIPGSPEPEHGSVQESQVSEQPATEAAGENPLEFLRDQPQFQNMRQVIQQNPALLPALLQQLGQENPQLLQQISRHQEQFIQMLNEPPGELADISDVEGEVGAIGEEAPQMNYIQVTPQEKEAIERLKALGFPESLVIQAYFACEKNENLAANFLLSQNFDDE
UniProt Q9BRQ0: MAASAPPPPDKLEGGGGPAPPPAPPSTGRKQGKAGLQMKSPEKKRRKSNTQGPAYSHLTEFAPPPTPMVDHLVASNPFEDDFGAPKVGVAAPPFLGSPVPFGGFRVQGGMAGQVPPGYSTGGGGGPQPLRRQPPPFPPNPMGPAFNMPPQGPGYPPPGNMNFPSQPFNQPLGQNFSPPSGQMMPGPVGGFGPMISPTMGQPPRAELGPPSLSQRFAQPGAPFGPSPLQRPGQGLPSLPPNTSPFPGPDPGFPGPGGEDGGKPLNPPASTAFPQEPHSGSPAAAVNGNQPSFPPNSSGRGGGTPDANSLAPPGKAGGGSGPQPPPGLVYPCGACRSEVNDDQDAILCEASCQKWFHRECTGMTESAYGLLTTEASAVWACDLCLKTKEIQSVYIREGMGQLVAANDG
UniProt O15315: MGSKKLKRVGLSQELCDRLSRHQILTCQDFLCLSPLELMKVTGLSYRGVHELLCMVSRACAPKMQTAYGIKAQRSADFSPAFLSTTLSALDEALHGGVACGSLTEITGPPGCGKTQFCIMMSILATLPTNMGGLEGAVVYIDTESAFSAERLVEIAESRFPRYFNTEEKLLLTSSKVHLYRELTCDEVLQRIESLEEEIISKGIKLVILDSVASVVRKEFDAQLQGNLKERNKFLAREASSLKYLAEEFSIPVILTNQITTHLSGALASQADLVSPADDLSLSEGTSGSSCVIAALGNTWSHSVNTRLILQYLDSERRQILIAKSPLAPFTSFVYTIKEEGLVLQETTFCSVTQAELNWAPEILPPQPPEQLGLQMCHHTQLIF
UniProt Q2PPJ7: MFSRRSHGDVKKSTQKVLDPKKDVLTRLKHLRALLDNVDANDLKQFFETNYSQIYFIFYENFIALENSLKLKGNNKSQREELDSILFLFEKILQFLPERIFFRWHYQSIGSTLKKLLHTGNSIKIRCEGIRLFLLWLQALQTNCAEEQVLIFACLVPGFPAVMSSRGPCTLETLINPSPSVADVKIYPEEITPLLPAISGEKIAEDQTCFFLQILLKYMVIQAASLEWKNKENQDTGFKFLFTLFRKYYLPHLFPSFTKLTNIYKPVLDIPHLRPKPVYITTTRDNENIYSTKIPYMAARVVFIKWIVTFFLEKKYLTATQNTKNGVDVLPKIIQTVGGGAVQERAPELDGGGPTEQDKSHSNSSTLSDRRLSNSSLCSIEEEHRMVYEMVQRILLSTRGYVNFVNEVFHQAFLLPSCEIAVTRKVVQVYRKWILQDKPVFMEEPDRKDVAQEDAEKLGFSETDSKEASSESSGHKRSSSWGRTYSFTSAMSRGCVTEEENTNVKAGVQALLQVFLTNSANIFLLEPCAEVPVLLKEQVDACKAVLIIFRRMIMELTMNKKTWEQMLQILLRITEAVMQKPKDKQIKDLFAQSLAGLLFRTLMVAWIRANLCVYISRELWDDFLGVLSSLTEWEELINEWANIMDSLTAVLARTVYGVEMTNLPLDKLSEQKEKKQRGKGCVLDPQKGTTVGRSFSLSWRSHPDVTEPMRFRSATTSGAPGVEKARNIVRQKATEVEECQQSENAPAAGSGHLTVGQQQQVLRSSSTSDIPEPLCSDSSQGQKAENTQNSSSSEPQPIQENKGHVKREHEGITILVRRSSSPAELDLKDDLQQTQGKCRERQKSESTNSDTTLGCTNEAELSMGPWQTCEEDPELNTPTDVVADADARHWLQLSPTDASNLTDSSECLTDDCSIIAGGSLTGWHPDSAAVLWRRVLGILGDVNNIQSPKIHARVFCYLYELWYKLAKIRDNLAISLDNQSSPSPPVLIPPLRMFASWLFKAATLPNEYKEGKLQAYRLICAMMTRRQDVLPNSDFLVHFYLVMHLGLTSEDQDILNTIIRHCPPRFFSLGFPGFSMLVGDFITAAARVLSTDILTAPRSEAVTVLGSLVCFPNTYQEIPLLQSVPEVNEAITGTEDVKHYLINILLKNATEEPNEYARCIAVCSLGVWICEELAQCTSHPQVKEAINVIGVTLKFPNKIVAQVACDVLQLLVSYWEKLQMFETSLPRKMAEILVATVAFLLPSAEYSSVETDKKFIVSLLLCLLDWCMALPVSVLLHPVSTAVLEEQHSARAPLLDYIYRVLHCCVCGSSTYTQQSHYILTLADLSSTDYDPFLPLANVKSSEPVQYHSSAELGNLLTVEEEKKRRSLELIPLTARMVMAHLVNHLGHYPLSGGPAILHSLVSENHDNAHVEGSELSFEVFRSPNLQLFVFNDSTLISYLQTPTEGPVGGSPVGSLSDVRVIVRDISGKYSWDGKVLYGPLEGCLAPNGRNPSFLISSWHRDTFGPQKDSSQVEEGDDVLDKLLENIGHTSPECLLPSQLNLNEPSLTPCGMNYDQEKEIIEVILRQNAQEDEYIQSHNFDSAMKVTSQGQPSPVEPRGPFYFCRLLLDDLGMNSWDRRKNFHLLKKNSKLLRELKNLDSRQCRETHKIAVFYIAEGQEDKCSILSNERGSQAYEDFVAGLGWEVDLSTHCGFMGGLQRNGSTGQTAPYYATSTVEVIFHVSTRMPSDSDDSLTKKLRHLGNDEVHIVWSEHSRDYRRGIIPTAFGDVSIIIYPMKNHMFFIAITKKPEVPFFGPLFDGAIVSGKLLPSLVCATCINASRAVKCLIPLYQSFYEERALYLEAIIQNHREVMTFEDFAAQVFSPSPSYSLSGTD
UniProt P20337: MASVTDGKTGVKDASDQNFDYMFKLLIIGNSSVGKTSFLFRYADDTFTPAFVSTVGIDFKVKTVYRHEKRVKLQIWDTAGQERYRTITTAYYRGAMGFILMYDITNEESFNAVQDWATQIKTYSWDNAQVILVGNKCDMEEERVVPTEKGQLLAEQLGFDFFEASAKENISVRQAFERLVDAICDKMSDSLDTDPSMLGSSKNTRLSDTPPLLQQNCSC
UniProt Q9Y620: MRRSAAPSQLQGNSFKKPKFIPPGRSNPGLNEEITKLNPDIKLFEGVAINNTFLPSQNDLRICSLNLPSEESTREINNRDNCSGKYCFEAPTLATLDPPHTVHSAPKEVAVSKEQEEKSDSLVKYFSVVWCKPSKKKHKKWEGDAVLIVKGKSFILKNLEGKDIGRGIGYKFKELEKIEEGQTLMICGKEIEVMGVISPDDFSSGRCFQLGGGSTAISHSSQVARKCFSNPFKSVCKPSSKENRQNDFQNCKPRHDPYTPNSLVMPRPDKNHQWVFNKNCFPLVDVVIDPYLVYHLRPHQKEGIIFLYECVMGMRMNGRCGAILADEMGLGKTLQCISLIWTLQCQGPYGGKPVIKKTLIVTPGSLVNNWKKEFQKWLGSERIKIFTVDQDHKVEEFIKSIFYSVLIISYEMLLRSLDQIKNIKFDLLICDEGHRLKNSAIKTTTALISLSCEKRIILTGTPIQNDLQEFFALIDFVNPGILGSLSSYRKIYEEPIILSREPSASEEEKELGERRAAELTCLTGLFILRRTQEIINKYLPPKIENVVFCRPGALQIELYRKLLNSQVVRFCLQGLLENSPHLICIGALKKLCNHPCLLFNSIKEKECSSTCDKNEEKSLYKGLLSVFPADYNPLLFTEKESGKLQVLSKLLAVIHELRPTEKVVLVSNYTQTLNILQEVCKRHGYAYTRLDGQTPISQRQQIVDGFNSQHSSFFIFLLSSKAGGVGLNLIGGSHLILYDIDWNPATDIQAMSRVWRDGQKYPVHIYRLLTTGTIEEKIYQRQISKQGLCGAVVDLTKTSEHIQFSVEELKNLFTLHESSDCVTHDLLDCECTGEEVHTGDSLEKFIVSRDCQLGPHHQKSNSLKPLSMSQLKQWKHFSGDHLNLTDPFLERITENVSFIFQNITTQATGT
UniProt P52306: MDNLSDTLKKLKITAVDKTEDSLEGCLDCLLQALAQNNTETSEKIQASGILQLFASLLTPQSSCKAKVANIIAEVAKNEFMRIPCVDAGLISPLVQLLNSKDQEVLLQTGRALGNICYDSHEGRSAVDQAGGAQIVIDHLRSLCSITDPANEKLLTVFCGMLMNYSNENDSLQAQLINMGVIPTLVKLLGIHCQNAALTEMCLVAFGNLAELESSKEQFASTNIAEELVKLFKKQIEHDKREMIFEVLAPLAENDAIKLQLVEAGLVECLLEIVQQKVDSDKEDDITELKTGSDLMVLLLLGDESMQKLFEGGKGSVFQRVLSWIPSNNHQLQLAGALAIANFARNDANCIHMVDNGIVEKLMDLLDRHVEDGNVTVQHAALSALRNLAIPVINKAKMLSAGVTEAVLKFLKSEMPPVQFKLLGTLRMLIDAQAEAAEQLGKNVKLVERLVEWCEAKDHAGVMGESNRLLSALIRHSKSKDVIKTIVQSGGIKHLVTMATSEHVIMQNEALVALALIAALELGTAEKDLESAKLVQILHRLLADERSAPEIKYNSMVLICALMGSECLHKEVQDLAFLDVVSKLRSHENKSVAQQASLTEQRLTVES
UniProt Q9BUV8: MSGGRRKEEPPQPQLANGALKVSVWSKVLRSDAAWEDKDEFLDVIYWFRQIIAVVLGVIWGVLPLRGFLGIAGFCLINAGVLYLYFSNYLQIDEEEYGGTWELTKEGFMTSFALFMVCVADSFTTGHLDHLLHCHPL
UniProt Q9HD47: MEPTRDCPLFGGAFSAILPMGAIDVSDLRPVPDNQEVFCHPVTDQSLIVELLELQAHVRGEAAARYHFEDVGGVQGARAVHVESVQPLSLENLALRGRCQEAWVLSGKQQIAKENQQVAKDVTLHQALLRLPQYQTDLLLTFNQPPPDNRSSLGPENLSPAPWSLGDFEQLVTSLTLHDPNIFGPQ
UniProt Q86X10: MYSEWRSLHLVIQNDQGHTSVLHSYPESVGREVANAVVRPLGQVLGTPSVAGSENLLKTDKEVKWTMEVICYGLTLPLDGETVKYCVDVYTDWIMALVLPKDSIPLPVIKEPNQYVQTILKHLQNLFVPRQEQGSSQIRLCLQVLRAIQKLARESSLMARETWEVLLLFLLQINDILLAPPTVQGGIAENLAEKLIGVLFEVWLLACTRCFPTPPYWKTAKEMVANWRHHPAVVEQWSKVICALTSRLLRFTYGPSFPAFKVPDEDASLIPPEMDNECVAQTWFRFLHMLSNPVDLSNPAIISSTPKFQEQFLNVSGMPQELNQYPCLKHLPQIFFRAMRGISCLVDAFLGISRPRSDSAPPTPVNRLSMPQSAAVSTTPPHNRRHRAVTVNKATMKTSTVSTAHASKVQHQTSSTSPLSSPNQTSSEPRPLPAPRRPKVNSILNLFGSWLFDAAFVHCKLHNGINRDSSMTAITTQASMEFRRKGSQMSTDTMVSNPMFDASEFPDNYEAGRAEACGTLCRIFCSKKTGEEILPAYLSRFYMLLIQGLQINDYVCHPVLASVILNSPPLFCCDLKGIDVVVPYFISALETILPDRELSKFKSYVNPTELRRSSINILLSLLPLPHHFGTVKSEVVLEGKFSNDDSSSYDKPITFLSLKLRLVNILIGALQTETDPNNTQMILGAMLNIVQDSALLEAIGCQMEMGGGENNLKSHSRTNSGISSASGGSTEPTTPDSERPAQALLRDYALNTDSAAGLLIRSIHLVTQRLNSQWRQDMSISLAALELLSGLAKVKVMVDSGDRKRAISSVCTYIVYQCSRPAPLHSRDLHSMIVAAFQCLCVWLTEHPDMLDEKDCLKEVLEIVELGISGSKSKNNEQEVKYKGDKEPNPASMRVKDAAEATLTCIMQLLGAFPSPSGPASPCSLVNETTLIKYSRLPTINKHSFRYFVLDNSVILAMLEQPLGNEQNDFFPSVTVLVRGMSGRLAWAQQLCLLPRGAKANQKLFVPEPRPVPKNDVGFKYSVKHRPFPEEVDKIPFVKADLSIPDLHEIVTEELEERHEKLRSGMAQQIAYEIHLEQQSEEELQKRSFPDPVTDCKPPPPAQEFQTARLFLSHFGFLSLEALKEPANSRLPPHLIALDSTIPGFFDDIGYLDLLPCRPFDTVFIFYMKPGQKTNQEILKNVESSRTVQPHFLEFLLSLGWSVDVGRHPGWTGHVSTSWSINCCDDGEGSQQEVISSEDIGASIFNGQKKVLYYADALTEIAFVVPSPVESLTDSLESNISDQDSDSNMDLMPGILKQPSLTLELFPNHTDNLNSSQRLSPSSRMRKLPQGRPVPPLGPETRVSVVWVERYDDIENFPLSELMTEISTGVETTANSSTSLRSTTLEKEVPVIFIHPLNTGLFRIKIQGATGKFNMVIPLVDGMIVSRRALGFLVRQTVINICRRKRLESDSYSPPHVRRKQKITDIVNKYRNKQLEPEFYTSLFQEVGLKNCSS

What was measured:
Experiment in all cases: log2 fold change, soluble protein after heating vs DMSO (PISA); higher = thermal stabilisation; K562 lysate, 10 uM; active = over 0.2 and 3.5 SD of the protein, either way, in both replicates (recomputed)
[1] = compound: CC(=O)c1cnc2ccc(-c3cc(Cl)c(O)c(Cl)c3)nc2c1N[C@H]1CC[C@H](CN(C)C)CC1
Procedure, shortened: (§1)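 Pellets of K562 cells were dounce-homogenised in PBS pH 7.4 with 1 mM MgCl2, and the crude extract was held at 1 mg/mL protein for a 30 min treatment with 10 μM compound. Aliquots were heated for 3 min over 48°C-58°C and pooled before NP-40 was added to 0.5% at 4°C. The supernatant from 21,000xg for 90 min was quantified by TMTpro 16plex LC-MS/MS with channel sums equalised. Values are reported from duplicates as log-two fold change in thermal stability relative to solvent controls.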

ralimetinib = compound: CC(C)(C)Cn1c(N)nc2ccc(-c3[nH]c(C(C)(C)C)nc3-c3ccc(F)cc3)nc21 [ralimetinib]
Procedure, shortened: as §1

[2] = compound: CC(C)(O)CC(=O)NCCn1ccc2ncnc(Nc3ccc(Oc4cccc(C(F)(F)F)c4)c(Cl)c3)c21
Procedure, shortened: as §1

[3] = compound: CC(C)C1=C2N=C(C=C(N2N=C1)NCC3=CC=CC=C3)NCCCCCCN
Procedure, shortened: as §1

[4] = compound: CC1=C(C(CC(=O)N1)C2=CC=C(C=C2)C(F)(F)F)C(=O)NC3=C(C=C4C(=C3)C=NN4)F
Procedure, shortened: as §1

[5] = compound: CC1=C(C=C(C=C1)NC(=O)C2=CC(=CC=C2)N(C)C)NC(=O)C3=CC=C(C=C3)O
Procedure, shortened: as §1

[6] = compound: CC1=CC=C(C=C1)SC2=C3C=C(SC3=CN=C2)C(=O)N
Procedure, shortened: as §1

[7] = compound: CCCS(=O)(=O)Nc1ccc(F)c(C(=O)c2c[nH]c3ncc(Cl)cc23)c1F
Procedure, shortened: as §1

volasertib = compound: CC[C@@H]1C(=O)N(C)c2cnc(Nc3ccc(C(=O)N[C@H]4CC[C@H](N5CCN(CC6CC6)CC5)CC4)cc3OC)nc2N1C(C)C [volasertib]
Procedure, shortened: as §1

[8] = compound: CCn1c(C(=O)N(C2CC2)C2CC2)cc2c3c(ncn3C)c(Nc3cc(C)n(C)n3)nc21
Procedure, shortened: as §1

[9] = compound: CCn1cc(-c2ccnc3[nH]c(-c4cccc(CN(C)C)c4)cc23)c(-c2ccc(NC(=O)N(C)C)cc2)n1
Procedure, shortened: as §1

[10] = compound: CN1CCC(CNc2ccc3ncc(-c4cccc(OC(F)(F)F)c4)n3n2)CC1
Procedure, shortened: as §1

ibrutinib = compound: C=CC(=O)N1CCC[C@@H](n2nc(-c3ccc(Oc4ccccc4)cc3)c3c(N)ncnc32)C1 [ibrutinib]
Procedure, shortened: as §1

[11] = compound: CC1=C(C2=C(C=C1)C(=O)C3=CC=CC=C3N2CCCN)C
Procedure, shortened: as §1

[12] = compound: CC1=C(C=C(C=C1)NC(=O)C2=CC(=CC=C2)C(C)(C)C#N)NC3=CC4=C(C=C3)N=CN(C4=O)C
Procedure, shortened: as §1

barasertib = compound: CCN(CCCOc1ccc2c(Nc3cc(CC(=O)Nc4cccc(F)c4)[nH]n3)ncnc2c1)CCOP(=O)(O)O [barasertib]
Procedure, shortened: as §1

[13] = compound: CC[C@@H]1C(=O)N(C)c2cnc(Nc3ccc(C(=O)NC4CCN(C)CC4)cc3OC)nc2N1C1CCCC1
Procedure, shortened: as §1

saracatinib = compound: CN1CCN(CCOc2cc(OC3CCOCC3)c3c(Nc4c(Cl)ccc5c4OCO5)ncnc3c2)CC1 [saracatinib]
Procedure, shortened: as §1

sotrastaurin = compound: CN1CCN(c2nc(C3=C(c4c[nH]c5ccccc45)C(=O)NC3=O)c3ccccc3n2)CC1 [sotrastaurin]
Procedure, shortened: as §1

vemurafenib = compound: CCCS(=O)(=O)Nc1ccc(F)c(C(=O)c2c[nH]c3ncc(-c4ccc(Cl)cc4)cc23)c1F [vemurafenib]
Procedure, shortened: as §1

Target	log2 fold change [1]	log2 fold change (ralimetinib)	log2 fold change [2]	log2 fold change [3]	log2 fold change [4]	log2 fold change [5]	log2 fold change [6]	log2 fold change [7]	log2 fold change (volasertib)	log2 fold change [8]	log2 fold change [9]	log2 fold change [10]	log2 fold change (ibrutinib)	log2 fold change [11]	log2 fold change [12]	log2 fold change (barasertib)	log2 fold change [13]	log2 fold change (saracatinib)	log2 fold change (sotrastaurin)	log2 fold change (vemurafenib)
RAD23A isoform 3 (UniProt P54725)	inactive: -0.004	inactive: -0.013	inactive: 0.026	inactive: 0.112	inactive: 0.143	inactive: -0.192	inactive: -0.037	inactive: 0.054	inactive: 0.148	inactive: -0.237	inactive: 0.045	inactive: 0.054								
PYGO2 (UniProt Q9BRQ0)		inactive: 0.151	inactive: -0.122	inactive: -0.001	inactive: 0.005	inactive: -0.061				inactive: 0	inactive: -0.044	inactive: 0.042	inactive: 0.064	inactive: 0.044	inactive: 0.011	inactive: 0.036	inactive: -0.106	inactive: 0.07	inactive: -0.022	
PYHIN1 (UniProt Q6K0P9)	inactive: -0.051	inactive: -0.004	inactive: 0.1		inactive: 0.053	inactive: -0.047	inactive: 0.117	inactive: -0.006	inactive: -0.011	inactive: -0.239				inactive: -0.152	inactive: -0.22			inactive: -0.05	inactive: 0.018	
RAI1 (UniProt Q7Z5J4)															inactive: 0.109		inactive: -0.111		inactive: 0.041	
RACK1 (UniProt D6RHH4)											inactive: 1.62	inactive: 0.219	inactive: 0.017			inactive: 0.906				inactive: 0.235
RAC3 (UniProt P60763)				inactive: 0							inactive: -0.044	inactive: -0.092			inactive: 0.118		inactive: 0.041		inactive: -0.128	inactive: -0.002
QSER1, A0A3B3IRW6	inactive: -0.047	inactive: -0.014	inactive: -0.021	inactive: -0.009	inactive: -0.001	inactive: 0.087	inactive: -0.087	inactive: 0.045	inactive: -0.028	inactive: 0.043				inactive: 0.037	inactive: 0.009		inactive: -0.044	inactive: -0.036	inactive: -0.014	inactive: -0.042
RACK1 (UniProt D6RF23)					inactive: 0.014								inactive: 0.066			inactive: 0.078	inactive: -0.201			inactive: 0.076
RAD51B (UniProt O15315)		inactive: 0.006	inactive: 0.156	inactive: 0.197	inactive: 0.084	inactive: -0.058				inactive: -0.04	inactive: 0.004	inactive: -0.141	inactive: -0.021	inactive: -0.015	inactive: 0.306	inactive: 0.164	inactive: 0.084	inactive: 0.002	inactive: -0.014	inactive: -0.117
RALGAPA2 (UniProt Q2PPJ7)	inactive: 0.123						inactive: 0.005	inactive: 0.011	inactive: -0.145		inactive: -0.087	inactive: -0.121			inactive: -0.155				inactive: 0.423	
NA (UniProt Q4G0T1)		inactive: 0.016	inactive: -0.096	inactive: -0.119		inactive: -0.151				inactive: 0.032	inactive: 0.022	inactive: 0.026		inactive: -0.061	inactive: -0.158			inactive: -0.033	inactive: 0.129	
QARS1, A0A0U1RR66	inactive: 0.15						inactive: -0.523	inactive: -0.257	inactive: -0.07											
RAB11FIP3 isoform 3 (UniProt O75154)	inactive: -0.03	inactive: 0.021	inactive: 0.254	inactive: -0.012		inactive: 0	inactive: -0.108	inactive: -0.058	inactive: 0.098	inactive: -0.098				inactive: -0.172			inactive: -0.055	inactive: 0.277		
RAB3B (UniProt P20337)											inactive: -0.007	inactive: 0.037			inactive: 0.007				inactive: 0.022	
RAB43 (UniProt Q86YS6)		inactive: 0.013	inactive: 0.026	inactive: 0.081	inactive: 0.038	inactive: 0.058				inactive: -0.01	inactive: 0.01	inactive: 0.034	inactive: -0.006	inactive: -0.144		inactive: 0.047	inactive: 0.031	inactive: -0.43		
RAD54B (UniProt Q9Y620)		inactive: 0.051	inactive: 0.047		inactive: -0.014	inactive: 0.017				inactive: -0.101				inactive: -0.039	inactive: -0.186		inactive: 0.135	inactive: 0.106	inactive: 0.016	inactive: 0.228
RAB3D (UniProt O95716)	inactive: -0.037	inactive: -0.133	inactive: -0.041	inactive: 0.093		inactive: -0.025	inactive: 0	inactive: -0.034	inactive: -0.024	inactive: 0.145				inactive: 0.101	inactive: -0.162		inactive: 0.08	inactive: -0.015	inactive: -0.051	inactive: -0.102
R3HDM2 (UniProt B5MCU0)		inactive: -0.08	inactive: 0.074	inactive: 0.229		inactive: 0.034				inactive: -0.071					inactive: -0.009		inactive: 0.031		inactive: -0.023	
RAB27B (UniProt O00194)	inactive: -0.103			inactive: -0.056	inactive: 0.049		inactive: -0.009	inactive: 0.071	inactive: -0.017		inactive: 0.002	inactive: -0.034		inactive: -0.026			inactive: -0.154	inactive: 0.05		inactive: -0.04
RALGPS2 (UniProt Q86X27)		inactive: -0.059	inactive: -0.086	inactive: 0.018	inactive: -0.134	inactive: -0.054				inactive: -0.107	inactive: 0.454	inactive: -0.022	inactive: 0.114		inactive: 0.041	inactive: 0.048	inactive: 0.119		inactive: -0.026	inactive: 0.08
RAP1GDS1 isoform 4 (UniProt P52306)	inactive: 0.03						inactive: -0.055	inactive: -0.057	inactive: 0.047		inactive: -0.058	inactive: 0.089	inactive: 0.004			inactive: -0.056				
RAB5IF isoform 5 (UniProt Q9BUV8)	inactive: -0.029			inactive: -0.163	inactive: 0.086		inactive: 0.073	inactive: 0.129	inactive: -0.398		active: 0.928	inactive: -0.362	inactive: -0.039	inactive: -0.165		inactive: 0.142	inactive: -0.03	inactive: 0.009		inactive: -0.075
R3HDM4 (UniProt Q96D70)		inactive: -0.077	inactive: -0.056	inactive: -0.022	inactive: 0.139	inactive: 0.029				inactive: -0.064	inactive: 0.093	inactive: 0.078		inactive: -0.088	inactive: 0.044		inactive: 0.009	inactive: -0.039	inactive: 0.067	inactive: 0.166
RANGRF (UniProt Q9HD47)	inactive: 0.009	inactive: 0.082	inactive: -0.053	inactive: 0.219		inactive: -0.085	inactive: 0.136	inactive: 0.054	inactive: -0.052	inactive: -0.056				inactive: 0.062	inactive: 0.02			inactive: 0.06	inactive: 0.117	
RALGAPB isoform 3 (UniProt Q86X10)											inactive: -0.139	inactive: 0.004	inactive: 0.106	inactive: -0.087		inactive: -0.005	inactive: -0.076	inactive: -0.343		
RAB18 (UniProt Q9NP72)	inactive: 0.023			inactive: -0.118	inactive: 0.028		inactive: 0.102	inactive: -0.128	inactive: 0.005		inactive: 0.132	inactive: -0.051	inactive: -0.004	inactive: 0.017	inactive: -0.036	inactive: 0.021	inactive: -0.043	inactive: 0.151	inactive: 0.033	inactive: -0.06

Looked up above.
Under log2 fold change (saracatinib), RAB3D (UniProt O95716) shows inactive: -0.015
Under log2 fold change [3], R3HDM2 (UniProt B5MCU0) shows inactive: 0.229
